In all, about 400,000 compounds went through this assay and about 13,000 (3.2%) were called active. Inconclusive means that the source gave no clear call. Such entries were picked first, then a sample of the others. Calls follow the shape of the dose curve; as a rule, active = well fitted cell-killing curve with a large enough effect; inconclusive = small, poorly fitted or top-dose-only effect, or effect the other way; inactive = flat fitted curve, though single readings scatter. Where the call is inconclusive, the potency comes from a doubtful curve fit.
test: qHTS assay for MDR1-selective chemotherapeutics: Primary screen using the drug-selected MDR subline cells KB-V1; details: KB-V1 MDR cells viability, CellTiter-Glo, 72 h; activity change, negative = cytotoxicity: at 46.1 µM (top of the series); also: nearly all actives have a fitted effect of over 60% in size
Method in brief: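 qHTS viability screen in drug-selected KB-V1 MDR cells: 72 h compound treatment at 37 degrees C, ATP luminescence end point.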
% is scaled to controls: 0 for no effect and ±100 for the full control effect; potency is read from the fitted curve at half-maximal effect.

Row | Structure (SMILES) | Potency | activity change, negative = cytotoxicity
1 | COc1ccc(C2=C(CN(C)C)C(c3ccccc3)c3ccccc3O2)cc1 (configuration not stated) | active: 11.6 µM | –
2 | O=C1/C(=C/c2ccccc2)CN(C(=O)CCN2CCOCC2)C/C1=C\c1ccccc1 | inconclusive: 2.31 µM [cytotoxic, partial curve, poor fit] | –
3 | Cc1ccc([C@H]2N[C@]3(CCCN(Cc4ccc(F)cc4)C3=O)[C@H]3C(=O)N(C)C(=O)[C@@H]23)cc1 | inconclusive: 29.1 µM [cytotoxic, single point] | –
4 | COc1ccc(CCN2C(=O)CC(NNc3ccc([N+](=O)[O-])cc3)C2=O)cc1OC (configuration not stated) | inconclusive: 23.1 µM [cytotoxic, partial curve, poor fit] | –
5 | ClC1(Cl)CC1CSc1nc2ccccc2[nH]1 (configuration not stated) | inconclusive: 16.4 µM [cytotoxic, single point] | –
6 | Cc1ccc(N(C)S(=O)(=O)c2cccc(C(=O)Nc3nnc(C4CC4)s3)c2)cc1 | – | inactive: 1.84%
7 | Cn1nc(C(=O)NNC(=O)CCOc2ccc(C(C)(C)C)cc2)c2ccccc2c1=O | inconclusive: 29.1 µM [rising, single point] | –
8 | Cc1ccc(-c2csc3nnc(SCC(=O)N4CCN(Cc5ccccc5)CC4)n23)cc1 | active: 6.51 µM | –
9 | Brc1ccc(CNc2cc3c(cc2Br)OCCO3)cc1 | – | inactive: -3.14%
10 | O=C(NCc1ccc2c(c1)OCO2)C1CCCN1C(=O)Nc1ccc(F)cc1 (configuration not stated) | inconclusive: 23.1 µM [cytotoxic, single point] | –
11 | C#CCN(C[C@@H]1[C@@H](OC(=O)NC2CC2)[C@@H](OC(=O)NC2CC2)CN(C(=O)OC(C)C)N1C(=O)OC(C)C)S(=O)(=O)c1ccc(C)cc1 | – | inactive: 7.48%
12 | CCN(CC)C(=O)Cn1cc(SCC(=O)NCc2ccco2)c2ccccc21 | inconclusive: 10.3 µM [cytotoxic, partial curve, poor fit] | –
13 | Cc1ccc(C(=O)NN=C2CCCC2)cc1C | inconclusive: 13 µM [rising, single point] | –
14 | COc1cccc2cc(-c3nc(-c4ccc(C)cc4)c(C)s3)c(=O)oc12 | inconclusive: 23.1 µM [rising, single point] | –
15 | CCOc1ccccc1NC(=O)CN1C=NS(=O)(=O)c2ccccc21 | inconclusive: 29.1 µM [rising, single point] | –
16 | Cc1c(NC(=O)c2ccc(-c3cccc([N+](=O)[O-])c3)o2)c(=O)n(-c2ccccc2)n1C | – | inactive: -2.62%
17 | OC(c1ccc2ccccc2c1)c1ncc(-c2cccc3ccccc23)[nH]1 (configuration not stated) | inconclusive: 29.1 µM [cytotoxic, single point] | –
18 | O=C1c2ccccc2C(c2nnnn2-c2ccc3c(c2)OCCO3)N1Cc1cccs1 (configuration not stated) | inconclusive: 6.51 µM [cytotoxic, partial curve] | –
19 | COC(=O)C1=CN(C2CC2)C=C(C(=O)OC)C1c1ccc(C(=O)OC)cc1 | active: 7.31 µM | –
20 | COc1ccc2c(c1OC)C(=O)N(c1cccc(C)c1)C2 | – | inactive: -24.1%
21 | COc1ccc(OC)c(NC(=O)CCS(=O)(=O)c2cc3c(cc2C)NC(=O)CO3)c1 | inconclusive: 20.6 µM [rising, partial curve, poor fit] | –
22 | O=S(=O)(Nc1ccc(Cl)cc1)c1cccc(S(=O)(=O)c2ccc(Cl)c(Cl)c2)c1 | – | inactive: -12.1%
23 | O=c1c(N=Nc2ccccc2)c[nH]n1-c1ccccc1 | – | inactive: 1.95%

Row | Structure (SMILES) | Potency | activity change, negative = cytotoxicity
24 | OC(COCc1ccco1)CN1CCN(c2ccccc2)CC1 (configuration not stated) | inconclusive: 23.1 µM [cytotoxic, single point] | –
25 | Cc1c(Cc2ccccc2)c(=O)n2c([nH]c3ccccc32)c1C#N | active: 13 µM | –
26 | COc1cccc(N2CCN(C(=O)c3ccc(CS(=O)c4ccc(Cl)cc4)o3)CC2)c1 (configuration not stated) | inconclusive: 0.651 µM [cytotoxic, full curve, poor fit] | –
27 | CC(=O)c1ccc(N2C(=O)N(Cc3cc(C)ccc3C)c3ccccc3S2(=O)=O)cc1 | inconclusive: 29.1 µM [cytotoxic, single point] | –
28 | O=c1cc(CSc2nnc(COc3cccc4ccccc34)o2)c2ccccc2[nH]1 | – | inactive: -24.8%
29 | CCOC(=O)C1(C)C=C(Nc2ccc(C(=O)O)cc2)C(=O)N1c1ccc(C(=O)O)cc1 (configuration not stated) | – | inactive: -12.6%
30 | CCc1ccc(N2CCN(C(=O)c3ccc4c(c3)OCO4)CC2)cc1 | inconclusive: 29.1 µM [cytotoxic, single point] | –
31 | COc1ccc(-n2nnnc2SCC(=O)NC2CCCC2)cc1OC | inconclusive: 29.1 µM [cytotoxic, single point] | –
32 | CC(C)CCN(C(=O)C1CCCC1)c1c(N)n(Cc2ccccc2)c(=O)[nH]c1=O | inconclusive: 18.4 µM [rising, partial curve] | –
33 | COc1ccccc1C(=O)NC(=O)COC(=O)CNC(=O)c1ccccc1 | inconclusive: 32.6 µM [rising, single point] | –
34 | COc1ccc2c(c1)c1c(c(=O)n(-c3ccccc3C)c(=O)n1Cc1c(F)cccc1Cl)n2C | – | inactive: -1.61%
35 | Cc1cc(C)n(C(=O)COc2ccc([N+](=O)[O-])cc2)n1 | inconclusive: 20.6 µM [rising, single point] | –
36 | COc1cc(/C=N\NC(=O)CNC(=O)c2cccc([N+](=O)[O-])c2)ccc1O | inconclusive: 32.6 µM [rising, single point] | –
37 | CCOc1ccccc1C1CC(=O)Nc2cc(C)c(C)cc21 (configuration not stated) | active: 8.2 µM | –
38 | CCC1(C(=O)c2ccccc2)C(c2cccc([N+](=O)[O-])c2)C1(C(=O)OC)C(=O)OC (configuration not stated) | active: 23.1 µM | –
39 | O=C(N1CCOCC1)N1CCN(c2ccccn2)CC1 | inconclusive: 14.6 µM [rising, partial curve, poor fit] | –
40 | COCCC(=O)N1CCC(Oc2ccc(C(=O)N3CCCCCC3)cc2)CC1 | inconclusive: 18.4 µM [cytotoxic, single point] | –
41 | Fc1ccc(N/N=C/C=C/c2ccccc2)c(F)c1 | – | inactive: 6.97%
42 | CCCCCCCCN1C(=O)[C@H](CC(=O)NCc2cccc(C(F)(F)F)c2)C[C@@]2(C(=O)OCC)CCCC=C12 | inconclusive: 18.4 µM [cytotoxic, partial curve] | –
43 | COCC(=O)Nc1cc(C(=O)NCC(C)C)ccc1Cl | inconclusive: 10.3 µM [cytotoxic, partial curve, poor fit] | –
44 | CCOC(=O)c1c(NC(=O)Cn2cnc3scc(-c4ccc(C)cc4)c3c2=O)sc(C)c1C | inconclusive: 18.4 µM [cytotoxic, single point] | –
45 | COc1ccc(S(=O)(=O)N2CCCCCC2)cc1NC(=O)Cc1cccc(C(F)(F)F)c1 | inconclusive: 20.6 µM [cytotoxic, single point] | –
46 | CC(C)NS(=O)(=O)c1ccc(OCC(=O)Nc2ccc(F)cc2)cc1 | inconclusive: 29.1 µM [cytotoxic, single point] | –

Three of the compounds above, with each value named:
Cc1cc(C)n(C(=O)COc2ccc([N+](=O)[O-])cc2)n1
  Potency: inconclusive: 20.6 µM [rising, single point]
COc1cc(/C=N\NC(=O)CNC(=O)c2cccc([N+](=O)[O-])c2)ccc1O
  Potency: inconclusive: 32.6 µM [rising, single point]
CCOc1ccccc1C1CC(=O)Nc2cc(C)c(C)cc21 (configuration not stated)
  Potency: active: 8.2 µM

Further compounds.

Row | Structure (SMILES) | Potency | activity change, negative = cytotoxicity
47 | Cc1ccc(NC(=O)/C=C/c2cccs2)c([N+](=O)[O-])c1 | active: 5.8 µM | –
48 | Cc1ccc(CCN2CC(C(=O)NC3CCC(C)CC3)CC2=O)cc1 (configuration not stated) | – | inactive: -25.1%
49 | COc1ccc(N2C(=O)C3CCCN3C2c2ccc(C)o2)cc1 (configuration not stated) | – | inactive: 10%
50 | Cc1ccsc1C(=O)Nc1ccc(F)c([N+](=O)[O-])c1 | – | inconclusive: -44.8%
51 | COc1cc(NC(=O)c2sc3ncn(CC(=O)N4CCCCC4C)c(=O)c3c2C)cc(OC)c1OC (configuration not stated) | inconclusive: 13 µM [rising, partial curve, poor fit] | –
52 | CC(O)(c1cccc(F)c1)c1nc(-c2ccncc2)cs1 (configuration not stated) | inconclusive: 8.2 µM [cytotoxic, partial curve, poor fit] | –
53 | C[C@@H]1CCCCO[C@H](CN(C)C(=O)Nc2ccc(C(F)(F)F)cc2)[C@@H](C)CN([C@H](C)CO)C(=O)c2cc(NC(=O)c3ccncc3)ccc2O1 | inconclusive: 29.1 µM [rising, single point] | –
54 | C=CCNC(=O)C(=O)c1c(-c2ccccc2)[nH]c2ccccc12 | inconclusive: 29.1 µM [rising, single point] | –
55 | O=C(Nc1cccc(S(=O)(=O)C(F)(F)F)c1)[C@@H]1O[C@H](CO)[C@@H](O)[C@H]1O | – | inactive: 6.36%
56 | COc1ccc(CNC(=O)[C@H](C)NC(=O)C2CCN(S(=O)(=O)c3ccc(C)cc3)CC2)cc1 | inconclusive: 13 µM [cytotoxic, partial curve, poor fit] | –
57 | O=C(Nc1nc2ccc(C(=O)N3CCCCC3)cc2s1)C1CCCCC1 | active: 3.66 µM | –
58 | COc1ccc(CNc2nc(SCC(=O)NCc3ccco3)nc3ccccc23)cc1 | active: 6.51 µM | –
59 | O=C(CSc1nnc(-c2ccc(C(F)(F)F)cn2)o1)Nc1cccc(Cl)c1 | inconclusive: 18.4 µM [cytotoxic, single point] | –
60 | COCCNCC(=O)Nc1ccc(C)c(S(=O)(=O)N2CCCCC2)c1 | inconclusive: 23.1 µM [cytotoxic, single point] | –
61 | Cc1csc2c(NCCCN3CCOCC3)ncnc12 | – | inactive: -5.63%
62 | CC(C)(C)N1C(=O)c2ccc(C(=O)O)cc2C1=O | inconclusive: 10.3 µM [rising, partial curve] | –
63 | CCCC(=O)Nc1ccc(NC(=O)c2ccco2)c(OC)c1 | – | inactive: -0.4%
64 | OCCNc1c2ccccc2nc2ccccc12 | inconclusive: 29.1 µM [cytotoxic, single point] | –
65 | COc1ccc(-c2c(C(=O)c3ccc(Br)cc3)[nH]c(N)c2C(=O)c2ccccc2)cc1OC | inconclusive: 10.3 µM [cytotoxic, partial curve, poor fit] | –
66 | CCc1noc2c1/C(=N\O)CC(c1ccccc1)C2 (configuration not stated) | inconclusive: 29.1 µM [cytotoxic, single point] | –
67 | O=C(CSc1nnc(-c2ccccc2F)n1C1CC1)Nc1cccnc1Cl | inconclusive: 29.1 µM [cytotoxic, single point] | –

From PubChem BioAssay AID1347076 (National Center for Advancing Translational Sciences (NCATS), 2019)
